Measured values as given in patent US5560907A, “Whitening embellisher” (Eisai Co., Ltd., priority 1992, dated 1996).

Test system: B16 melanoma cells derived from a mouse
Assay: Restraint of melanin production in cultured B16 melanoma cells
Conditions: sample concentrations 1×10^-4 to 3×10^-4 %

SMILES: CC(=O)CCC=C(C)CCC=C(C)CCC=C(C)CCC=C(C)C [teprenone, geranylgeranylacetone]
- amount of mitochondria: tended to increase
- amount of proteins in the B16 melanoma cells: did not change
